In patent publication US6602882B1, “Quinoline derivatives and their use as antibacterial agents” (SmithKline Beecham p.l.c., priority 1998, dated 2003):
Some results were stated once for a whole list of compounds, not compound by compound. For at least one compound, name, drawing or mass did not settle the structure.

test system: range of gram positive and gram negative bacteria; assay: MIC against one or more of a range of bacteria; assay type: cell-based

Structure (SMILES) | MIC
CCCCCCCN1CC[C@H](NC(=O)Nc2ccnc3ccc(OC)cc23)[C@H](CO)C1.O=C(O)C(=O)O (relative stereo) [Example 5, N-(cis-1-Heptyl-3-(R/S)-hydroxymethyl-4-(S/R)-piperidyl)-N′-(6-methoxyquinolin-4-yl)urea oxalate] | less than or equal to 1 μg/ml
CCCCCCCN1CC[C@H](NC(=O)Nc2ccnc3ccc(OC)nc23)[C@H](CO)C1.O=C(O)C(=O)O (relative stereo) [Example 6, N-(cis-1-Heptyl-3-(R/S)-hydroxymethyl-4-(S/R)-piperidyl)-N′-(6-methoxy-[1,5]-naphthyridin-4-yl)urea Oxalate] | less than or equal to 1 μg/ml
CCCCCC1CCC2CC(OC(=O)Nc3ccnc4ccc(OC)cc34)CCN2C1 (centres unmarked) [Example 1, 1-Aza-8-(ax)-[(6-methoxyquinolin-4-yl)-aminocarbonyloxy]-3-(ax)-n-pentyl-bicyclo[4,4,0]decane] | less than or equal to 1 μg/ml
CCCCCC1CCC2CC(OC(=O)Nc3ccnc4ccc(OC)cc34)CCN2C1 (centres unmarked) [Example 2, 1-Aza-8-(ax)-[(6-methoxyquinolin-4-yl)aminocarbonyloxy]-3-(eq)-n-pentyl-bicyclo[4,4,0]decane] | less than or equal to 16 μ/ml
CCCCCCCN1CCC(OC(=O)Nc2ccnc3ccc(OC)cc23)CC1 [Example 3, 1-Heptyl-4-[N-(6-methoxyquinolin-4-yl)aminocarbonyloxy]piperidine] | less than or equal to 16 μ/ml
CCCCCCCN1CCC(NC(=O)Nc2ccnc3ccc(OC)cc23)CC1 [Example 4, 1-Heptyl-4-(6-methoxyquinolin4-yl)ureidopiperidine] | less than or equal to 16 μ/ml
CCCCCCCN1CCC(NC(=O)Nc2ccnc3ccc(OC)nc23)CC1.O=C(O)C(=O)O [Example 7] | less than or equal to 1 μg/ml
CCCCCCC1CCC2CC(OC(=O)Nc3ccnc4ccc(OC)cc34)CCN2C1 (centres unmarked) [Example 8, 1-Aza-8-(ax)-[(6-methoxyquinolin-4yl)-aminocarbonyloxy]-3-(ex)-n-hexyl-bicyclo[4,4,0]decane] | less than or equal to 16 μ/ml
